The results in this text go back to article doi:10.1101/2022.02.18.480778.

This assay deals with FLAG-tagged SHFL (FLAG-SHFL) (human) (UniProt Q9NUL5). Briefly: co-IP.

Results are given in words; binding and its absence hold for the method and conditions named. Binding seen in cells or lysates may run through a third protein. Some binding calls cover weakened binding; strength is not graded here. Sequences can lack the tags named with a protein.

B1: 6X HIS-tagged ORF57 (ORF57-6XHIS) (protein, UniProt Q2HR75 1-455)
chain: MVQAMIDMDIMKGILEDSVSSSEFDESRDDETDAPTLEDEQLSEPAEPPADERIRGTQSAQGIPPPLGRIPKKSQGRSQLRSEIQFCSPLSRPRSPSPVNRYGKKIKFGTAGQNTRPPPEKRPRRRPRDRLQYGRTTRGGQCRAAPKRATRRPQVNCQRQDDDVRQGVSDAVKKLRLPASMIIDGESPRFDDSIIPRHHGACFNVFIPAPPSHVPEVFTDRDITALIRAGGKDDELINKKISAKKIDHLHRQMLSFVTSRHNQAYWVSCRRETAAAGGLQTLGAFVEEQMTWAQTVVRHGGWFDEKDIDIILDTAIFVCNAFVTRFRLLHLSCVFDKQSELALIKQVAYLVAMGNRLVEACNLLGEVKLNFRGGLLLAFVLTIPGMQSRRSISARGQELFRTLLEYYRPGDVMGLLNVIVMEHHSLCRNSECAAATRAAMGSAKFNKGLFFYPLS
On to B1, for which the binding result is given as “binds”.
